From PMC6363647
These are yes or no findings as the source states them, for the method shown. In cells and extracts the contact can be indirect. Some entries that bind do so weakly or less than the wild type.

Protein sequences, listed by entry. Tags and fused reporters are not part of them.
UniProt Q8R1Q8: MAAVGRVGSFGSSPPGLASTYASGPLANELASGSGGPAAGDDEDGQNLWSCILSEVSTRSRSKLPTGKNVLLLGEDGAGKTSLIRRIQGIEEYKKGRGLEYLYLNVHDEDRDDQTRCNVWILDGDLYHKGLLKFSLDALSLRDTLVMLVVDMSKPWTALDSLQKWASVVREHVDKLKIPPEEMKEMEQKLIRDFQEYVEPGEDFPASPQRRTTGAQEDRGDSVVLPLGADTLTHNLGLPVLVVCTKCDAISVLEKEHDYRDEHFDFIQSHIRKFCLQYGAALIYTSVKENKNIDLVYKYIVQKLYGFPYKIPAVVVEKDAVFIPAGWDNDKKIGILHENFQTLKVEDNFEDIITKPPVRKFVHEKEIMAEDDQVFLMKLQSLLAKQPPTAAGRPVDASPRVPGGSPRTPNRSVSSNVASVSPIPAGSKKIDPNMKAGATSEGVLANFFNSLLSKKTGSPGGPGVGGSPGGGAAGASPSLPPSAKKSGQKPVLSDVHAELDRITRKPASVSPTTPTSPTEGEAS
UniProt O08788: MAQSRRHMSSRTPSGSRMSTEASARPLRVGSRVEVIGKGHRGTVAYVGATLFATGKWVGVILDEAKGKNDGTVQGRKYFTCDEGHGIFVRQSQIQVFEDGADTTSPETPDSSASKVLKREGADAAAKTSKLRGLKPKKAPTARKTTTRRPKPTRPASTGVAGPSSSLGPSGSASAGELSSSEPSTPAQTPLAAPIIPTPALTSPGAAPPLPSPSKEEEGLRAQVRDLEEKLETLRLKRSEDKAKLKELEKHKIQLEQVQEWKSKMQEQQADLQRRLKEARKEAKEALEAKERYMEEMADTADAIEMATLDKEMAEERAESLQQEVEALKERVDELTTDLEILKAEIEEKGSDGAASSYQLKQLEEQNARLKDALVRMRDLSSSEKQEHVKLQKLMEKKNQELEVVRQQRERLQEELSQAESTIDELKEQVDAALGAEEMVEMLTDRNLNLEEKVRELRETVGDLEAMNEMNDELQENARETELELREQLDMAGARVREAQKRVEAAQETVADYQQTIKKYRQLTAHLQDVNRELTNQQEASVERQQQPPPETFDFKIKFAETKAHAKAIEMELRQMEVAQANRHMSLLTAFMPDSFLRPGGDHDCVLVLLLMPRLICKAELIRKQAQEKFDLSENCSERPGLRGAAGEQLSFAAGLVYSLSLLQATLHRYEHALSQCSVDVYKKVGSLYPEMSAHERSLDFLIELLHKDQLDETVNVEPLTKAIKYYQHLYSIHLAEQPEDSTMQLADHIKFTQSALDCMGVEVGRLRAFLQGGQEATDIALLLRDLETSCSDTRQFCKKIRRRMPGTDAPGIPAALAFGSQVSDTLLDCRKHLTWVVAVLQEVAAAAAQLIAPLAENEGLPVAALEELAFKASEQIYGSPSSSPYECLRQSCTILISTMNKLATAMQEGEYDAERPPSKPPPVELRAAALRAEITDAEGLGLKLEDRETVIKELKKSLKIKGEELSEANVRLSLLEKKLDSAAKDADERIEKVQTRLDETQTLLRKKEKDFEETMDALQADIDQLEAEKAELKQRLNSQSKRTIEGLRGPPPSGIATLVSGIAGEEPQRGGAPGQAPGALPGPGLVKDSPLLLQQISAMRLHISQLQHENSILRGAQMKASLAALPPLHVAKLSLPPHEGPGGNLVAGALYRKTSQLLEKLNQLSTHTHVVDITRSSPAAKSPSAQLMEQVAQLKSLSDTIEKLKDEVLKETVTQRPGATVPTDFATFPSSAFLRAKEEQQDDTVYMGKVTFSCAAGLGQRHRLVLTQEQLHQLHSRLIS

Target: T1, endogenous SK2 of murine brain (mouse (endogenous in C57/Bl6 mouse brain)) (UniProt Q9JIA7)
T1 sequence: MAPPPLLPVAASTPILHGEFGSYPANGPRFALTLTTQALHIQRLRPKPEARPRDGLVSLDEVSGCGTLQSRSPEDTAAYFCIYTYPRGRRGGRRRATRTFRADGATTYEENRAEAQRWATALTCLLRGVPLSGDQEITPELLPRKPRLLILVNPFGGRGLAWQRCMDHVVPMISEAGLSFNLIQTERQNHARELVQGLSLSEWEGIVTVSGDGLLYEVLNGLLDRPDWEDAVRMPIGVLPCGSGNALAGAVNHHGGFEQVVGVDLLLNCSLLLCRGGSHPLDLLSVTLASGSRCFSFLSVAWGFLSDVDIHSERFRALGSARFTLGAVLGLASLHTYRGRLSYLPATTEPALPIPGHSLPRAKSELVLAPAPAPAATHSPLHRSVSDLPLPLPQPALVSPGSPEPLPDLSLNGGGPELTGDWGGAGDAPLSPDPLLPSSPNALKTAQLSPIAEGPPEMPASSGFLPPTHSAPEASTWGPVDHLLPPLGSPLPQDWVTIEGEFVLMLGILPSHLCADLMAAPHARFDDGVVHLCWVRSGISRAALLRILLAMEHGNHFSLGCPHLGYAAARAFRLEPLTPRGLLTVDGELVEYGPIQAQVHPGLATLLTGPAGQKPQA
Assay: co-IP; endogenous SK2 immunoprecipitated from C57/Bl6 mouse whole brain lysate with anti-SK2 antibodies (ECM Biosciences); blots with anti-IC, anti-LIC1 and anti-dynactin p150

Substance | binding
dynein light intermediate chain 1 (LIC1) of murine brain (from UniProt Q8R1Q8 1-523) | binds
p150 subunit of the dynactin complex, murine brain (from UniProt O08788 1-1281) | binds
